Reference: EP1529533A1, “Use of GH secretagogues in hypoxic-ischemic brain injury” (Sahltech I Göteborg AB, priority 2003, dated 2005)
Not every detail of the peptide structures is certain; ends, links or a residue may be inferred. Where a SMILES comes first, the peptide text is derived from it. [ ]: non-standard residue; d: D form. dTrp(2-Me) = Cc1[nH]c2ccccc2c1C[C@@H](N)C(=O)O

Tests used:
Akt [1] = test: Western blot of P-Akt and Akt after HI insult and treatment; type: in vivo, rats; settings: 24hr after HI insult and treatment, vs. vehicle
GSK3β [2] = test: Western blot of P-GSK3β after HI insult and treatment; type: in vivo, rats; settings: 24hr after HI insult and treatment; vs. vehicle
Caspase-3 = test: Fluorometric assay of caspase-3 like activity (DEVD cleavage) in brain tissue after HI; type: in vivo, rats; settings: 24h after insult and treatment
[3] = tested on: Seven-day-old out bred Wistar Fue rats; test: Neuropathological scoring of brain injury, neonatal hypoxia-ischemia model; type: in vivo; settings: 72hr after HI
p44/42 MAP-kinase = test: Western blot of phospho-p44/42 (p-Erk) and p44/42 (total-Erk) after i.c.v. injection; type: in vivo, rats; settings: nuclear fractions of the whole hemisphere
Akt [4] = test: Western blot of P-Akt and Akt in brain regions after i.c.v. injection; type: in vivo, rats; settings: for Activated (phosphorylated) Akt in the cytosol: compared to saline
GSK3β [5] = test: Western blot of P-GSK3β and GSK3 in brain regions after i.c.v. injection; type: in vivo, rats
[6] = tested on: Seven-day-old out bred Wistar Fue rats; test: Area measurement of infarction (loss of MAP-2 staining), neonatal hypoxia-ischemia model; type: in vivo; settings: 72hr after HI; for reduction in infarcted tissue: vs. vehicle

In the case of Cc1[nH]c2ccccc2c1C[C@@H](NC(=O)[C@@H](N)Cc1c[nH]cn1)C(=O)N[C@@H](C)C(=O)N[C@@H](Cc1c[nH]c2ccccc12)C(=O)N[C@H](Cc1ccccc1)C(=O)N[C@@H](CCCCN)C(N)=O [Hexarelin] (H-H[dTrp(2-Me)]AW[dF]K-NH2), the “total Akt” value (Akt [1]) is reported as “no differences”, the “phosphorylated Akt” value (Akt [1]; cortex and diencephalon, cytosolic fraction) is reported as “increase” and the P-GSK3β (GSK3β [2]) is reported as “no differences”. For the same compound, the “Caspase-3 activity (DEVD cleavage)” value (Caspase-3; cortex, vs. controls) was “no significant differences”, the “Caspase-3 activity (DEVD cleavage)” value (Caspase-3; ipsilateral diencephalon, vehicle 15,9±3,0) was 10,0±1,9 pmoles of AMC formed per minut and the “reduction of Caspase-3 activity” value (Caspase-3; ipsilateral diencephalon, vs. controls, p<0,05) was 37%. For the same compound, the “protection in the striatum (neuropathological score)” value ([3]; p=0.07) was “no significant protection”, the “neuropathological score, cortex” value ([3]; score 0-4, VEH 2.6+/- 0.2, p<0.05) was 1.9+/- 0.2 and the “neuropathological score, thalamus” value ([3]; score 0-6, VEH 2.6±0.3, p<0.05) was 1.7±0.2. For the same compound, the “neuropathological score, hippocampus” value ([3]; score 0-6, VEH 3.6±0.3, p<0.05) was 2.4±0.3, the “neuropathological score of the whole brain” value ([3]; total score 0-22, mean ± S.E.M., vehicle 12.7 ± 0.9) was 9.3 ± 1.1 and the “reduction of neuropathological score of the whole brain” value ([3]; total score 0-22, vs. control, p<0.05) was 27%. For the same compound, the “Phosphorylated Erk (densitometry)” value (p44/42 MAP-kinase; 8hr after i.c.v. treatment, vehicle 521452±86006, p<0.0001) was 1074569±59997, the “total Erk” value (p44/42 MAP-kinase; between the two groups) was “no differences” and the “total Akt levels” value (Akt [4]; any regions) was “no changes”. For the same compound, the “Activated (phosphorylated) Akt in the cytosol” value (“Activated (phosphorylated) Akt” below) (Akt [4]; cortex, 24hr) was “increased”, the “Activated (phosphorylated) Akt” value (Akt [4]; diencephalon, similar pattern) was “no significant differences” and the “Activated (phosphorylated) Akt” value (Akt [4]; hippocampus, after 30min) was “increased”. The “Total GSK3” value (GSK3β [5]; between the treatment groups) was “did not differ”, the “phosphorylated (inactivated) GSK3β in the cytosolic fraction” value (GSK3β [5]; cortex and diencephalon, from 30 min and still at 24hr) was “decreased” and the “P-GSK3β in the nuclear fraction” value (GSK3β [5]; pattern after 2hr but significant first at 8hr) was “increase”. For the same compound, the “Infarcted area measured as loss of MAP-2 staining in the damaged ipsilateral hemisphere compared to the contralateral hemisphere” value ([6]; all four levels of the brain, 5 µg intracerebral daily, vs. control group) was “significantly reduced”, the “infarcted tissue (percentage of the contralateral hemisphere)” value ([6]; level 3 over hippocampus (-2 mm from bregma), 5 µg intracerebral, mean ± S.E.M., vehicle 45,2% ± 4,6) was 25,7% ± 3,5 and the “reduction in infarcted tissue” value ([6]; level 3 over hippocampus (-2 mm from bregma), 5 µg intracerebral, p<0,01) was 43%. For the same compound, the “reduction in infarcted tissue” value ([6]; mean of the four levels, 5 µg intracerebral, p<0.01) was 34%.
